From article doi:10.1101/2024.01.29.24301801

By UniProt entry, the sequences of proteins in these tests, tags left out. Where a name states a change or a piece, a line headed by the entry shows the natural chain unless it says otherwise.
UniProt O15379: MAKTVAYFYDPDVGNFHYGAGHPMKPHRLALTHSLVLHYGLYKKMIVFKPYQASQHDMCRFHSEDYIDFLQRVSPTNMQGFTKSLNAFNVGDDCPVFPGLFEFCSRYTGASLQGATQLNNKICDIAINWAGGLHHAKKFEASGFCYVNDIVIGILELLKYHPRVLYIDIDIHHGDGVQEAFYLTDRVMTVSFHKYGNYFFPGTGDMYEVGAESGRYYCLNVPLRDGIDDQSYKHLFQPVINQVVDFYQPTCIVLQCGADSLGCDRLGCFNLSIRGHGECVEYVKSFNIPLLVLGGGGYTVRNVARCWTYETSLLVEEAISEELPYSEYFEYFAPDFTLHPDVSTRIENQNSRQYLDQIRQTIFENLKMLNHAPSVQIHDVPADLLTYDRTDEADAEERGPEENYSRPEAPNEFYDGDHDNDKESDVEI
UniProt P62191: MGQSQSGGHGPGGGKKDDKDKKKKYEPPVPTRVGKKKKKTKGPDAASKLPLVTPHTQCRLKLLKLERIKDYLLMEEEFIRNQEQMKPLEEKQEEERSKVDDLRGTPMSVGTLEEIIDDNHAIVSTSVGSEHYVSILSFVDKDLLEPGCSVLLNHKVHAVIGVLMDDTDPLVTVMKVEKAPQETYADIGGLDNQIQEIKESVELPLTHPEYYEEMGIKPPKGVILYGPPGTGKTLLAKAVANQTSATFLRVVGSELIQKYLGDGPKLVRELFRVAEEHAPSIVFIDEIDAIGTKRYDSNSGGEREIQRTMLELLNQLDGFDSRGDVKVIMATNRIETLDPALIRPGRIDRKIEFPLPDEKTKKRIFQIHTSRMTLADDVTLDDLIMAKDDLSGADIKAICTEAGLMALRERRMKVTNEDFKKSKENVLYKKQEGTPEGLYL
UniProt O14818: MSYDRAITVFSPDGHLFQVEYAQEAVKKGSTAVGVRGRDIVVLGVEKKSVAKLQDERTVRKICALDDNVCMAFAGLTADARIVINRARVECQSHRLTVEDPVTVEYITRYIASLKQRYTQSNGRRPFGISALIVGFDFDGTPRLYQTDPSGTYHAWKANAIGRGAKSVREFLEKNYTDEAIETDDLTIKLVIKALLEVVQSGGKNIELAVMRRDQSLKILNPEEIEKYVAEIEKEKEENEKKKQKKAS
UniProt Q8TAA3: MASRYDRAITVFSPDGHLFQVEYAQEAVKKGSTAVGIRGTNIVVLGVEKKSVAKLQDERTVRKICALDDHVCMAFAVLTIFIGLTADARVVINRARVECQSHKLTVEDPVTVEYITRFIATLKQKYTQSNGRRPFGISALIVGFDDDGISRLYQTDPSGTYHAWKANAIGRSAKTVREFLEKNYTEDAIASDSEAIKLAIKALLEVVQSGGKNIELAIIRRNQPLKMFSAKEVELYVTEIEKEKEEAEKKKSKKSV
UniProt Q13547: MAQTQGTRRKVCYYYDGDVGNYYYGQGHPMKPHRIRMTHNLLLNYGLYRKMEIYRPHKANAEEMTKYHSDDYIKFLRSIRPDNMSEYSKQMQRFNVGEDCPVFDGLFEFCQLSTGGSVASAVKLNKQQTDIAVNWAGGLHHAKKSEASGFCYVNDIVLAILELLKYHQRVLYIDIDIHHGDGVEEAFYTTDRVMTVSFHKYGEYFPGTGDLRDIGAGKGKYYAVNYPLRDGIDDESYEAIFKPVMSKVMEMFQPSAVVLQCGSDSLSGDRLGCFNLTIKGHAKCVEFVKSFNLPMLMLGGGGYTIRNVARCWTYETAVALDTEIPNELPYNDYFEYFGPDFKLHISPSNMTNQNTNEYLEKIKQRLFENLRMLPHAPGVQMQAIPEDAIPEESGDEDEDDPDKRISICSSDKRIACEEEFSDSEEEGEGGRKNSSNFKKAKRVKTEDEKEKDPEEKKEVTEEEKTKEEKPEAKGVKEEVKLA
UniProt P55884: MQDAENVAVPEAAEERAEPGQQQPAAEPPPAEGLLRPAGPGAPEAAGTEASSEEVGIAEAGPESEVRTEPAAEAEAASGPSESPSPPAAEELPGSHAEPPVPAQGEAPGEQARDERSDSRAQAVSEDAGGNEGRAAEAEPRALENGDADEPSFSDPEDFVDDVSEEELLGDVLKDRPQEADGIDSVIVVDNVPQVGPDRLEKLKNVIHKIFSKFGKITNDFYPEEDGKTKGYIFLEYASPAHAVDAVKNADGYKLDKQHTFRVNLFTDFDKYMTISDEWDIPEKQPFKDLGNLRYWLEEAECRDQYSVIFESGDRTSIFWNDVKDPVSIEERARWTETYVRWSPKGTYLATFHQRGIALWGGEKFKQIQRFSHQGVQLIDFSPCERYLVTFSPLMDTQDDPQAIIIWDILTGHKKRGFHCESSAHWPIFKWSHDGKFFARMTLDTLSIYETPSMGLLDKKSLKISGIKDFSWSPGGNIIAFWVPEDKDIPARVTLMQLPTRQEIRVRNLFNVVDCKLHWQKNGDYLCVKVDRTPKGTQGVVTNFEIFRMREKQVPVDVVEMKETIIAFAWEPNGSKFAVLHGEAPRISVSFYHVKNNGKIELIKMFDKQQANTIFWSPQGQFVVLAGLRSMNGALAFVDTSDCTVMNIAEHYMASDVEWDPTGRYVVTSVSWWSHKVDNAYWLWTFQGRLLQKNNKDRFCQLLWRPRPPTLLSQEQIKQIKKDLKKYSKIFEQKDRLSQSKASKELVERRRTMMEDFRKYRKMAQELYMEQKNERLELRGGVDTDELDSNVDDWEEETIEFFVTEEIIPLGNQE
UniProt Q9UKL0: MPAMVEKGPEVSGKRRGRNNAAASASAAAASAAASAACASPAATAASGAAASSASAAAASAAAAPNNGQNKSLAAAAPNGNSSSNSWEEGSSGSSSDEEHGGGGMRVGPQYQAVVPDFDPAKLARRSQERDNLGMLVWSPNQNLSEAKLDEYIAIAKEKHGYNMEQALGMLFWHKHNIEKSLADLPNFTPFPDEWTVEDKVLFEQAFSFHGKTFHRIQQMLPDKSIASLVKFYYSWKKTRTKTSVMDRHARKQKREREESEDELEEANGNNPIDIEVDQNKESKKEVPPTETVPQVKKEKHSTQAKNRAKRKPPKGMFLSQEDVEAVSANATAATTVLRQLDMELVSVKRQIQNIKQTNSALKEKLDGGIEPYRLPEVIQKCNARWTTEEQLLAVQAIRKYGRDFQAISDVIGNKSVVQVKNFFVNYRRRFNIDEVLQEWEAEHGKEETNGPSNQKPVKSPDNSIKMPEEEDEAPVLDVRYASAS

How the values were obtained:
Assay in all cases: affinity purification with mass spectrometry
[1] = target: FLAG-tagged HDAC3 G267S variant (HEK293T) (human) (UniProt O15379)
[2] = target: FLAG-tagged HDAC3 A110T variant (HEK293T) (human) (UniProt O15379)
[3] = target: FLAG-tagged HDAC3 L266S variant (HEK293T) (human) (UniProt O15379)
[4] = target: FLAG-tagged HDAC3 R359C variant (HEK293T) (human) (UniProt O15379)
[5] = target: FLAG-tagged wild-type HDAC3 (HEK293T) (human) (UniProt O15379)
[6] = target: FLAG-tagged HDAC3 G267S variant (HEK293T) (human) (UniProt O15379); remark: listed apart in the source
[7] = target: FLAG-tagged wild-type HDAC3 (HEK293T) (human) (UniProt O15379); remark: listed apart in the source
[8] = target: FLAG-tagged HDAC3 A110T variant (HEK293T) (human) (UniProt O15379); remark: listed apart in the source
[9] = target: FLAG-tagged HDAC3 L266S variant (HEK293T) (human) (UniProt O15379); remark: listed apart in the source
[10] = target: FLAG-tagged HDAC3 R359C variant (HEK293T) (human) (UniProt O15379); remark: listed apart in the source

binding [1]: binds
binding [2]: binds
binding [3]: binds
binding [4]: binds
Molecule: PSMC1 (from UniProt P62191 1-440)

binding [1]: binds
binding [2]: binds
binding [3]: binds
binding [4]: binds
Molecule: PSMA7 (from UniProt O14818 1-248)

binding [1]: binds
binding [2]: binds
binding [3]: binds
binding [4]: binds
Molecule: PSMA8 (from UniProt Q8TAA3 1-256)

binding [1]: binds
binding [5]: binds
binding [2]: binds
binding [3]: binds
binding [4]: binds
Molecule: RCOR3 (from UniProt Q9P2K3 1-495)

binding [1]: binds
binding [2]: binds
binding [3]: binds
binding [4]: binds
Molecule: HDAC1 (from UniProt Q13547 1-482)

binding [1]: binds
binding [5]: binds
binding [2]: binds
binding [3]: binds
binding [4]: binds
Molecule: EIF3B (from UniProt P55884 1-814)

binding [1]: binds
binding [5]: binds
binding [2]: binds
binding [3]: binds
binding [4]: binds
Molecule: REST corepressor 1 (RCOR1) (from UniProt Q9UKL0 1-485)

binding [6]: binds
binding [7]: binds
binding [8]: binds
binding [9]: binds
binding [10]: binds
B1: GSE1 (protein, UniProt Q14687 1-1217)
chain: MKGMSHEPKSPSLGMLSTATRTTATVNPLTPSPLNGALVPSGSPATSSALSAQAAPSSSFAAALRKLAKQAEEPRGSSLSSESSPVSSPATNHSSPASTPKRVPMGPIIVPPGGHSVPSTPPVVTIAPTKTVNGVWRSESRQDAGSRSSSGGRERLIVEPPLPQEKAGGPAIPSHLLSTPYPFGLSPSSVVQDSRFPPLNLQRPVHHVVPPSTVTEDYLRSFRPYHTTDDLRMSSLPPLGLDPATAAAYYHPSYLAPHPFPHPAFRMDDSYCLSALRSPFYPIPTPGSLPPLHPSAMHLHLSGVRYPPELSHSSLAALHSERMSGLSAERLQMDEELRREREREREREREREADREREKEREREREKEREQEKEREREKERERELERQREQRAREKELLAAKALEPSFLPVAELHGLRGHATEERGKPSEQLTPTRAEKLKDAGLQAPKPVQHPLHPVPTPHHTVPSLISNHGIFSLPSSSAATALLIQRTNEEEKWLARQRRLRQEKEDRQSQVSEFRQQVLEQHLDMGRPPVPAEAEHRPESTTRPGPNRHEPGGRDPPQHFGGPPPLISPKPQLHAAPTALWNPVSLMDNTLETRRAESHSLHSHPAAFEPSRQAAVPLVKVERVFCPEKAEEGPRKREPAPLDKYQPPPPPPREGGSLEHQPFLPGPGPFLAELEKSTQTILGQQRASLPQAATFGELSGPLKPGSPYRPPVPRAPDPAYIYDEFLQQRRRLVSKLDLEERRRREAQEKGYYYDLDDSYDESDEEEVRAHLRCVAEQPPLKLDTSSEKLEFLQLFGLTTQQQKEELVAQKRRKRRRMLRERSPSPPTIQSKRQTPSPRLALSTRYSPDEMNNSPNFEEKKKFLTIFNLTHISAEKRKDKERLVEMLRAMKQKALSAAVADSLTNSPRDSPAVSLSEPATQQASLDVEKPVGVAASLSDIPKAAEPGKLEQVRPQELSRVQELAPASGEKARLSEAPGGKKSLSMLHYIRGAAPKDIPVPLSHSTNGKSKPWEPFVAEEFAHQFHESVLQSTQKALQKHKGSVAVLSAEQNHKVDTSVHYNIPELQSSSRAPPPQHNGQQEPPTARKGPPTQELDRDSEEEEEEDDEDGEDEEEVPKRKWQGIEAVFEAYQEHIEEQNLERQVLQTQCRRLEARHYSLSLTAEQLSHSVAELRSQKQKMVSERERLQAELDHLRKCLALPAMHWPRGYLKGYPR

binding [6]: binds
binding [7]: binds
binding [8]: binds
binding [9]: binds
binding [10]: binds
B2: AMER1 (protein, UniProt Q5JTC6 1-1135)
chain: METQKDEAAQAKGAAASGSTREQTAEKGAKNKAAEATEGPTSEPSSSGPGRLKKTAMKLFGGKKGICTLPSFFGGGRSKGSGKGSSKKGLSKSKTHDGLSEAAHGPEDVVSEGTGFSLPLPELPCQFPSSQSAHGALETGSRCKTSVAGATEKAVAEKFPSMPKPKKGLKGFFSSIRRHRKSKVTGAEQSEPGAKGPERVRARPHEHVSSAPQVPCFEETFQAPRKENANPQDAPGPKVSPTPEPSPPATEKMACKDPEKPMEACASAHVQPKPAPEASSLEEPHSPETGEKVVAGEVNPPNGPVGDPLSLLFGDVTSLKSFDSLTGCGDIIAEQDMDSMTDSMASGGQRANRDGTKRSSCLVTYQGGGEEMALPDDDDEEEEEEEEVELEEEEEEVKEEEEDDDLEYLWETAQMYPRPNMNLGYHPTTSPGHHGYMLLDPVRSYPGLAPGELLTPQSDQQESAPNSDEGYYDSTTPGFEDDSGEALGLVRRDCLPRDSYSGDALYEFYEPDDSLENSPPGDDCLYDLHGRSSEMFDPFLNFEPFLSSRPPGAMETEEERLVTIQKQLLYWELRREQLEAQEARAREAHAREAHAREAYTREAYGREAYAREAHTWEAHGREARTREAQAREVRCRETQVRETQARQEKPVLEYQMRPLGPSVMGLAAGVSGTSQISHRGITSAFPTTASSEPDWRDFRPLEKRYEGTCSKKDQSTCLMQLFQSDAMFEPDMQEANFGGSPRRAYPTYSPPEDPEEEEVEKEGNATVSFSQALVEFTSNGNLFSSMSCSSDSDSSFTQNLPELPPMVTFDIADVERDGEGKCEENPEFHNDEDLAASLEAFELGYYHKHAFNNYHSRFYQGLPWGVSSLPRYLGLPGLHPRPPPAAMALNRRSRSLDTAETLEMELSNSHLVQGYLESDELQAQQEDSDEEDEEEEEGEWSRDSPLSLYTEPPGAYDWPAWAPCPLPVGPGPAWISPNQLDRPSSQSPYRQATCCIPPMTMSISLSVPESRAPGESGPQLARPSHLHLPMGPCYNLQPQASQSMRARPRDVLLPVDEPSCSSSSGGFSPSPLPQAKPVGITHGIPQLPRVRPEHPQPQPTHYGPSSLDLSKERAEQGASLATSYSSTAMNGNLAK

binding [6]: binds
binding [7]: binds
binding [8]: binds
binding [9]: binds
binding [10]: binds
B3: GANAB (protein, UniProt Q14697 29-944)
chain: ITLAVDRSNFKTCEESSFCKRQRSIRPGLSPYRALLDSLQLGPDSLTVHLIHEVTKVLLVLELQGLQKNMTRFRIDELEPRRPRYRVPDVLVADPPIARLSVSGRDENSVELTMAEGPYKIILTARPFRLDLLEDRSLLLSVNARGLLEFEHQRAPRVSQGSKDPAEGDGAQPEETPRDGDKPEETQGKAEKDEPGAWEETFKTHSDSKPYGPMSVGLDFSLPGMEHVYGIPEHADNLRLKVTEGGEPYRLYNLDVFQYELYNPMALYGSVPVLLAHNPHRDLGIFWLNAAETWVDISSNTAGKTLFGKMMDYLQGSGETPQTDVRWMSETGIIDVFLLLGPSISDVFRQYASLTGTQALPPLFSLGYHQSRWNYRDEADVLEVDQGFDDHNLPCDVIWLDIEHADGKRYFTWDPSRFPQPRTMLERLASKRRKLVAIVDPHIKVDSGYRVHEELRNLGLYVKTRDGSDYEGWCWPGSAGYPDFTNPTMRAWWANMFSYDNYEGSAPNLFVWNDMNEPSVFNGPEVTMLKDAQHYGGWEHRDVHNIYGLYVHMATADGLRQRSGGMERPFVLARAFFAGSQRFGAVWTGDNTAEWDHLKISIPMCLSLGLVGLSFCGADVGGFFKNPEPELLVRWYQMGAYQPFFRAHAHLDTGRREPWLLPSQHNDIIRDALGQRYSLLPFWYTLLYQAHREGIPVMRPLWVQYPQDVTTFNIDDQYLLGDALLVHPVSDSGAHGVQVYLPGQGEVWYDIQSYQKHHGPQTLYLPVTLSSIPVFQRGGTIVPRWMRVRRSSECMKDDPITLFVALSPQGTAQGELFLDDGHTFNYQTRQEFLLRRFSFSGNTLVSSSADPEGHFETPIWIERVVIIGAGKPAAVVLQTKGSPESRLSFQHDPETSVLVLRKPGINVASDWSIHLR

binding [6]: binds
binding [7]: binds
binding [8]: binds
binding [9]: binds
binding [10]: binds
B4: AKAP8L (protein, UniProt Q9ULX6 1-646)
chain: MSYTGFVQGSETTLQSTYSDTSAQPTCDYGYGTWNSGTNRGYEGYGYGYGYGQDNTTNYGYGMATSHSWEMPSSDTNANTSASGSASADSVLSRINQRLDMVPHLETDMMQGGVYGSGGERYDSYESCDSRAVLSERDLYRSGYDYSELDPEMEMAYEGQYDAYRDQFRMRGNDTFGPRAQGWARDARSGRPMASGYGRMWEDPMGARGQCMSGASRLPSLFSQNIIPEYGMFQGMRGGGAFPGGSRFGFGFGNGMKQMRRTWKTWTTADFRTKKKKRKQGGSPDEPDSKATRTDCSDNSDSDNDEGTEGEATEGLEGTEAVEKGSRVDGEDEEGKEDGREEGKEDPEKGALTTQDENGQTKRKLQAGKKSQDKQKKRQRDRMVERIQFVCSLCKYRTFYEDEMASHLDSKFHKEHFKYVGTKLPKQTADFLQEYVTNKTKKTEELRKTVEDLDGLIQQIYRDQDLTQEIAMEHFVKKVEAAHCAACDLFIPMQFGIIQKHLKTMDHNRNRRLMMEQSKKSSLMVARSILNNKLISKKLERYLKGENPFTDSPEEEKEQEEAEGGALDEGAQGEAAGISEGAEGVPAQPPVPPEPAPGAVSPPPPPPPEEEEEGAVPLLGGALQRQIRGIPGLDVEDDEEGGGGAP

Like-named read-outs stand apart in the source and are kept apart here. These are yes or no findings as the source states them, for the method shown. Binding seen in cells or lysates may run through a third protein. A yes stands for co-enrichment or nearness to the bait. Other partners may have been found. Each block holds one molecule with its values, some of them ahead of it.
